Reference: PubChem BioAssay AID743454 (Peter MacCallum Cancer Centre, 2014)
Here is an unselected part of about 18,000 reagents tested. 450 of them (2.5%) were called active. 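Single biological run; no consistent viability z cut-off exists, so the class columns, not z-scores, define the calls.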 Entries without a mark were called inactive.

Test: 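Knock-downs lowering viability or raising caspase 3/7 activity in vorinostat-treated resistant cells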 (primary screen)
System: human HCT116-VR colon cancer cells, selected for vorinostat resistance
Reagent: siRNA pool against human genes, 40 nM siRNA pool
Timing: vorinostat for 24 h, read-out about 72 h after transfection
Conditions: vorinostat at 2.5 µM final
Read-out: 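Cell viability by CellTiter-Fluor and caspase 3/7 activity by luminescence, each scaled to mock wells per plate, duplicates averaged, then robust z-scored over all plates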
Reading the numbers: viability robust z-score: higher = more viable cells than screen typical; caspase robust z-score: higher = more caspase 3/7 activity than screen typical
Rule for the call: 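a knock-down is a hit when classed RV1 or RV2 for lowered viability, or CA1 or CA2 for caspase activation; those lethal without drug were dropped; hits were retested singly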

| gene knocked down | viability hit class | caspase hit class | viability robust z-score | caspase robust z-score |
| --- | --- | --- | --- | --- |
| RBP4 (GeneID 5950) | no change | no change | -2.58 | 2.96 |
| ZNF467 (GeneID 168544) | no change | no change | -1.06 | 0.6 |
| P2RX5 (GeneID 5026) | no change | no change | -0.38 | 1.39 |
| CGNL1 (GeneID 84952) | no change | no change | 0.76 | -0.44 |
| APOBEC3C (GeneID 27350) | no change | no change | -2.16 | 3.34 |
| TRMT11 (GeneID 60487) | no change | no change | -0.55 | 2.09 |
| HRAS (GeneID 3265) | no change | no change | 0 | 0.46 |
| CXCL8 (GeneID 3576) | no change | no change | -0.02 | 0.13 |
| PARS2 (GeneID 25973) | no change | no change | 0.74 | 1.06 |
| ATF6B (GeneID 1388) | no change | no change | -0.84 | 0.83 |
| MAD2L2 (GeneID 10459) | no change | no change | -0.92 | 0.2 |
| DPP6 (GeneID 1804) | no change | no change | 1.16 | -0.74 |
| CCN5 (GeneID 8839) | no change | no change | 1.32 | 0.08 |
| ZG16B (GeneID 124220) | no change | no change | -2.38 | -0.07 |
| RNASE8 (GeneID 122665) | no change | no change | 0.86 | -0.96 |
| ZNF34 (GeneID 80778) | no change | no change | 1.17 | -0.26 |
| IVD (GeneID 3712) | no change | no change | 1.7 | -0.1 |
| CYB561D1 (GeneID 284613) | no change | no change | -0.94 | 0.6 |
| DMRTC1 (GeneID 63947) | no change | no change | -1.04 | 3.42 |
| COL14A1 (GeneID 7373) | no change | no change | 0.5 | -0.62 |
| YIPF5 (GeneID 81555) | no change | no change | 0.98 | -0.88 |
| MRPS12 (GeneID 6183) | no change | no change | -0.75 | 0.31 |
| NBPF15 (GeneID 284565) | no change | no change | 0.26 | -1.02 |
| HECTD2 (GeneID 143279) | no change | no change | -0.65 | 1.55 |
| TSPEAR (GeneID 54084) | no change | no change | 0.12 | 0.52 |
| RALGPS2 (GeneID 55103) | no change | no change | 1.42 | 1.04 |
| POLR2C (GeneID 5432) | no change | no change | -3.12 | 6.42 |
| C7orf33 (GeneID 202865) | no change | no change | 1.13 | -0.4 |
| RNF40 (GeneID 9810) | no change (active) | CA1 (caspase activation) | -0.82 | 12.2 |
| CX3CR1 (GeneID 1524) | no change | no change | -2.89 | 0.12 |

Not a retest: entries from further up.
| gene knocked down | viability hit class | caspase hit class | viability robust z-score | caspase robust z-score |
| --- | --- | --- | --- | --- |
| PARS2 (GeneID 25973) | no change | no change | 0.74 | 1.06 |
| ATF6B (GeneID 1388) | no change | no change | -0.84 | 0.83 |
| MAD2L2 (GeneID 10459) | no change | no change | -0.92 | 0.2 |

Continued:
| gene knocked down | viability hit class | caspase hit class | viability robust z-score | caspase robust z-score |
| --- | --- | --- | --- | --- |
| JRK (GeneID 8629) | no change | no change | -0.83 | -0.83 |
| GTF2E2 (GeneID 2961) | no change | no change | 0.8 | -0.58 |
| CMPK1 (GeneID 51727) | no change | no change | 0.72 | 0.7 |
| TRAF6 (GeneID 7189) | no change | no change | -0.01 | 0.62 |
| IQSEC2 (GeneID 23096) | no change | no change | -0.16 | 1.04 |
| GPT2 (GeneID 84706) | no change | no change | 0.34 | 3.33 |
| ARFGEF2 (GeneID 10564) | no change | no change | 0.13 | -0.92 |
| CAPN11 (GeneID 11131) | no change | no change | -0.08 | -0.86 |
| YPEL5 (GeneID 51646) | no change | no change | -0.01 | 2.53 |
| GNPDA2 (GeneID 132789) | no change | no change | -0.28 | 0.22 |
| WDR12 (GeneID 55759) | no change | no change | -0.89 | 5.09 |
| NREP (GeneID 9315) | no change | no change | 0.2 | 2.87 |
| CLCN7 (GeneID 1186) | no change | no change | -1.82 | 0.84 |
| ZMAT3 (GeneID 64393) | no change | no change | -0.25 | -0.52 |
| GAMT (GeneID 2593) | no change | no change | 0.01 | -0.42 |
| HCFC1R1 (GeneID 54985) | no change | no change | -0.47 | -1.3 |
| MPI (GeneID 4351) | no change | no change | -0.07 | 0.62 |
| CRX (GeneID 1406) | no change | no change | 1.14 | -0.77 |
| MLANA (GeneID 2315) | no change | no change | -0.61 | 3.5 |
| EYA1 (GeneID 2138) | no change | no change | 0.66 | 0.15 |
| PPIL4 (GeneID 85313) | no change | no change | 0.53 | -0.36 |
| EIPR1 (GeneID 7260) | no change | no change | 0.85 | -0.63 |
| IGFALS (GeneID 3483) | no change | no change | -1.12 | 2.24 |
| KRT10 (GeneID 3858) | no change | no change | 0.46 | 1.24 |
| CDKL5 (GeneID 6792) | no change | no change | -0.16 | -0.94 |
| AGAP3 (GeneID 116988) | no change | no change | 1.34 | 0.86 |
| MRPL53 (GeneID 116540) | no change | no change | 0.34 | 1.02 |
